Drawing on paper PMC4242682, this text covers binding for one molecule.

Results are given in words; binding and its absence hold for the method and conditions named. Some results given as binding are weak or reduced against the parent protein; the word gives no strength.

Assay [1] has as its target Cpn60β1 (UniProt C0Z361). The experiment in a line: native gel or EMSA; 50 µM Cpn60β1 monomer with 25 µM wild type Cpn20 (or the mixture of G32A and Cpn10(1)), 5 mM ATP, 10 mM MgCl2, 50 mM Tris-HCl pH 8, 0.3 M NaCl, 16 mM KCl, 2 mM DTT; 5 min room temperature, 1 h 30°C; 6% native gel; monomer to oligomer; both purified. On the technique in general: Mobility shift assays separate free from complexed probe on a gel.

The target in assay [2] is Cpn60β1 (UniProt C0Z361). The experiment in a line: condition: only with Cpn10(1) alone or G32A alone as the co-chaperonin (25 µM); 50 µM Cpn60β1 monomer; native gel or EMSA; as a5, but with 25 µM Cpn10(1) alone or G32A alone as the co-chaperonin; both purified.

B1: Cpn60β1 (protein, UniProt C0Z361 30-597)
chain: SSSFGRTQSIAQRKARFPKIYAAKQLHFNKDGTAIKKLQAGVNKLADLVGVTLGPKGRNVVLESKYGSPRIVNDGVTVAREVELEDPVENIGAKLVRQAASKTNDLAGDGTTTSVVLAQGLIAEGVKVVAAGANPVLITRGIEKTTKALVAELKKMSKEVEDSELADVAAVSAGNNYEVGNMIAEAMAKVGRKGVVTLEEGKSAENSLYVVEGMQFDRGYISPYFVTDSEKMCAEYENCKLFLVDKKITNARDIISILEDAIKGGYPLLIIAEDIEQEPLATLVVNKLRGTIKVAALKAPGFGERKSQYLDDIAALTGATVIREEVGLQLEKVGPEVLGNAGKVVLTKDTTTIVGDGSTEEVVKKRVEQIKNLIEAAEQDYEKEKLNERIAKLSGGVAVIQVGAQTETELKEKKLRVEDALNATKAAVEEGIVVGGGCTLLRLASKVDAIKETLANDEEKVGADIVKKALSYPLKLIAKNAGVNGSVVSEKVLSSDNPKHGYNAATGKYEDLMAAGIIDPTKVVRCCLEHASSVAKTFLMSDCVVVEIKEPESAAPAGNPMDNSGYGF
B1: the binding entry is “binds” in assay [1] and “no binding” in assay [2].
